Data taken from US20110065787A1, “THERAPEUTIC AGENT FOR MALE STERILITY” (SBI ALApromo., Ltd., priority 2008, published 2011).

System: male rats (Slc:Wistar)
Assay: Organ weights at autopsy of male rats after repeated oral administration (Example 1)
Details: 500 mg/kg oral once a day, compared to the control group

NCC(=O)CCC(=O)O.O=P(O)(O)O [ALA phosphate, δ-amino levulinic acid phosphate]
No significant difference: weight of prostate gland | weight of right and left epididymis | weight of right and left testis
